From article PMC3271077
No constants are given. Whether binding was seen depends on the method and setting. In cells and extracts the contact can be indirect. Tags and fused reporters may be left off the sequences shown.

Target: T1, HopF2-HA (P. syringae) (UniProt Q88A90)
T1 sequence: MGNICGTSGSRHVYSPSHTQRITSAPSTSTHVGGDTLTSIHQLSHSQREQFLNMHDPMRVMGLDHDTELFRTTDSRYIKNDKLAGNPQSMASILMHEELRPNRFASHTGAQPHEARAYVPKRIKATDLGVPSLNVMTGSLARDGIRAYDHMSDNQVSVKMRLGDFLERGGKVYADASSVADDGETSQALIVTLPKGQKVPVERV
Assay: co-IP; taxol- and GTP-treated clarified extracts of transgenic Arabidopsis leaves, anti-HA agarose beads overnight at 4°C, washes with extraction buffer and RIPA buffer, blots with HA and tubulin antibodies, bands quantified by ImageJ

With Arabidopsis tubulin (complex) the binding was “no binding”.
